Measured values from the RNAGym collection of RNA variant scans (doi:10.1126/science.aae0568).
Variants at the background level are over-represented here.

B1: tRNA (parent)
chain: GUUCCGUUGGCGUAAUGGUAACGCGUCUCCCUCCUAAGGAGAAGACUGCGGGUUCGAGUCCCGUACGGAACG

Variants of: B1
Experiment: yeast fitness relative to wild type (ratio to wild type); higher = fitter; tRNA-Arg(CCU), competitive growth, 37 C, YPD
How it was run: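 Gene amplicons from the start population and from each of six end populations were read by 100-nucleotide paired-end sequencing. Those end populations came from pooled Saccharomyces cerevisiae strains carrying tRNA-Arg(CCU) gene variants at the native locus, competed in YPD at 37°C for 24 hours. Fitness relative to wild type was worked out from changes in genotype frequencies. Genotypes needed ≥ 100 starting reads, and estimates < 0.5 were set to 0.5.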
With A14G C24G G52A the yeast fitness was ≤ 0.5.
With A14G C24U C34U C61U the yeast fitness was ≤ 0.5.
A14G C27G gave a yeast fitness of 0.562.
With A14G C27U C31G A43C C49G G52C U59A the yeast fitness was ≤ 0.5.
With A14G C27U U47A G56A C62U the yeast fitness was ≤ 0.5.
In the case of A14G C31U C33U A45C G48A, the yeast fitness is reported as 0.626.
For A14G C33U A40C A45C, the yeast fitness was ≤ 0.5.
For A14G C46G C55A A70G, the yeast fitness was ≤ 0.5.
With A14G C46U the yeast fitness was 0.886.
In the case of A14G C46U G52C, the yeast fitness is reported as ≤ 0.5.
In the case of A14G G17A G23A U28G A45C, the yeast fitness is reported as ≤ 0.5.
For A14G G17C A36C G48A C49G G51A A70C, the yeast fitness was ≤ 0.5.
In the case of A14G G17C C34U, the yeast fitness is reported as ≤ 0.5.
With A14G G18A A20C A40C A45G G52A the yeast fitness was ≤ 0.5.
In the case of A14G G18A G44A C62U, the yeast fitness is reported as ≤ 0.5.
With A14G G18A U26A G50A the yeast fitness was ≤ 0.5.
For A14G G23A A36G C66U, the yeast fitness was ≤ 0.5.
In the case of A14G G23A C29G, the yeast fitness is reported as ≤ 0.5.
In the case of A14G G23U G58A, the yeast fitness is reported as ≤ 0.5.
In the case of A14G G25A C46G C62G G68C, the yeast fitness is reported as ≤ 0.5.
In the case of A14G G25A G38C, the yeast fitness is reported as ≤ 0.5.
With A14G G25C C29A G52A the yeast fitness was ≤ 0.5.
A14G G38A gave a yeast fitness of 0.799.
For A14G G38A A40C C49U G50A U54A, the yeast fitness was ≤ 0.5.
In the case of A14G G39C C46G C49G, the yeast fitness is reported as ≤ 0.5.
For A14G U28A A45C U53A, the yeast fitness was ≤ 0.5.
In the case of A14G U28G C29U C61U, the yeast fitness is reported as ≤ 0.5.
With A14G U54C A57U the yeast fitness was ≤ 0.5.
Variant A14G U59A has a yeast fitness of 0.894.
With A14U A15C A40G G56C the yeast fitness was ≤ 0.5.
With A14U A15C A65U the yeast fitness was ≤ 0.5.
With A14U A15U C34G A69C the yeast fitness was ≤ 0.5.
With A14U A20C G23A C46A U64C the yeast fitness was ≤ 0.5.
For A14U A20G C24A C31U C33U A37U G48A A69C, the yeast fitness was ≤ 0.5.
With A14U A21C C22U C33G A45G C46G the yeast fitness was ≤ 0.5.
In the case of A14U A21G C46G A57U C66U, the yeast fitness is reported as ≤ 0.5.
For A14U A36C A37G, the yeast fitness was ≤ 0.5.
For A14U A36U G41A C49G A69U, the yeast fitness was ≤ 0.5.
With A14U A37C U47C the yeast fitness was ≤ 0.5.
In the case of A14U A37U A70U, the yeast fitness is reported as ≤ 0.5.
With A14U A40C U53A the yeast fitness was ≤ 0.5.
In the case of A14U A40G A45U G56A, the yeast fitness is reported as ≤ 0.5.
In the case of A14U A40U G68A A69U, the yeast fitness is reported as ≤ 0.5.
For A14U A40U U54A C55U U64C, the yeast fitness was ≤ 0.5.
In the case of A14U A45C C49U A65C, the yeast fitness is reported as ≤ 0.5.
A14U A65G C66G gave a yeast fitness of 0.788.
For A14U C22A A65U, the yeast fitness was ≤ 0.5.
In the case of A14U C22U C30U C46U G52C, the yeast fitness is reported as ≤ 0.5.
With A14U C24G G41A G44A C61A G67A the yeast fitness was ≤ 0.5.
For A14U C24U A40C, the yeast fitness was ≤ 0.5.
With A14U C24U C33A G44C U47C A70C the yeast fitness was ≤ 0.5.
In the case of A14U C24U U64C, the yeast fitness is reported as ≤ 0.5.
With A14U C27G the yeast fitness was 0.611.
In the case of A14U C29U A37U C66U, the yeast fitness is reported as ≤ 0.5.
For A14U C30A A65C, the yeast fitness was ≤ 0.5.
Variant A14U C30A C66U has a yeast fitness of 0.547.
In the case of A14U C30U G68A, the yeast fitness is reported as ≤ 0.5.
With A14U C30U U54A C62U the yeast fitness was ≤ 0.5.
In the case of A14U C34G C46A C62U A69C, the yeast fitness is reported as ≤ 0.5.
For A14U C49A A65G, the yeast fitness was ≤ 0.5.
With A14U C49G A57U the yeast fitness was ≤ 0.5.
In the case of A14U C55A A69C, the yeast fitness is reported as ≤ 0.5.
In the case of A14U C55A C60A, the yeast fitness is reported as ≤ 0.5.
In the case of A14U C55G A57G, the yeast fitness is reported as ≤ 0.5.
With A14U G17A C22U A69C A70U the yeast fitness was ≤ 0.5.
In the case of A14U G23A C29G C46A C55G G68A A70C, the yeast fitness is reported as ≤ 0.5.
Work on A14U G23U yielded a yeast fitness of 0.59.
With A14U G25A C30G C62G the yeast fitness was ≤ 0.5.
With A14U G44C G58A the yeast fitness was ≤ 0.5.
For A14U G52C G67A, the yeast fitness was ≤ 0.5.
A14U U16A C22U C24A G67A A69C showed a yeast fitness of 0.67.
For A14U U19G C30G, the yeast fitness was ≤ 0.5.
In the case of A14U U26C A43C C46A G67A, the yeast fitness is reported as ≤ 0.5.
With A14U U32A A37G A42U the yeast fitness was ≤ 0.5.
For A14U U59C A70C, the yeast fitness was ≤ 0.5.
With A15C A20C A21U C30U A40U the yeast fitness was ≤ 0.5.
With A15C A21U A43G the yeast fitness was ≤ 0.5.
For A15C A21U G23A, the yeast fitness was ≤ 0.5.
With A15C A36C G38C G52A C61U the yeast fitness was ≤ 0.5.
For A15C A36C G38C G52A G58A, the yeast fitness was ≤ 0.5.
A15C A36G showed a yeast fitness of 0.888.
With A15C A37C G50A U59C the yeast fitness was ≤ 0.5.
In the case of A15C A37C G68C, the yeast fitness is reported as ≤ 0.5.
For A15C A45C C60U C61U, the yeast fitness was ≤ 0.5.
With A15C C24A the yeast fitness was ≤ 0.5.
For A15C C24G A45G U47C, the yeast fitness was ≤ 0.5.
For A15C C27U C33U G51A G67A, the yeast fitness was ≤ 0.5.
In the case of A15C C29A C33G A45C, the yeast fitness is reported as ≤ 0.5.
With A15C C29U A69C the yeast fitness was ≤ 0.5.
For A15C C30A A42C, the yeast fitness was ≤ 0.5.
With A15C C30G A57U A70C the yeast fitness was ≤ 0.5.
For A15C C30G A69C A70G, the yeast fitness was ≤ 0.5.
With A15C C31G U64C the yeast fitness was ≤ 0.5.
For A15C C31U G68C, the yeast fitness was ≤ 0.5.
With A15C C33A C34U A36C G48C G50C the yeast fitness was ≤ 0.5.
With A15C C34U A69C the yeast fitness was ≤ 0.5.
With A15C C46U G51A C66A the yeast fitness was ≤ 0.5.
A15C C61U showed a yeast fitness of 0.713.
In the case of A15C G17A G18A A36C C55U G63A C66A, the yeast fitness is reported as ≤ 0.5.
In the case of A15C G17A G38C C61U G63C, the yeast fitness is reported as ≤ 0.5.
For A15C G17C C31A G44C G67C A69G, the yeast fitness was ≤ 0.5.
With A15C G18A C24A C34U C46G the yeast fitness was ≤ 0.5.
For A15C G18A C24G C55A, the yeast fitness was ≤ 0.5.
With A15C G18C A42C C55U the yeast fitness was ≤ 0.5.
For A15C G48A, the yeast fitness was 0.946.
In the case of A15C G58A G67A, the yeast fitness is reported as ≤ 0.5.
With A15C U16A A21G U26A C30U C46G A57C G68U the yeast fitness was ≤ 0.5.
With A15C U16A A21G U26A C30U C61A C66U the yeast fitness was ≤ 0.5.
For A15C U16A A21G U26A C61A A69U, the yeast fitness was ≤ 0.5.
A15C U16C A37C G50A U53A C61U gave a yeast fitness of 0.58.
For A15C U16C C31G G38C, the yeast fitness was ≤ 0.5.
For A15C U28C G48C G67A, the yeast fitness was ≤ 0.5.
With A15C U35C C55G A70G the yeast fitness was ≤ 0.5.
Variant A15C U47A has a yeast fitness of 1.09.
With A15C U53C C60A C66A the yeast fitness was ≤ 0.5.
In the case of A15C U59A C62A, the yeast fitness is reported as ≤ 0.5.
For A15G A20C U54A, the yeast fitness was ≤ 0.5.
In the case of A15G A20G C34A C62G G68C, the yeast fitness is reported as ≤ 0.5.
In the case of A15G A21G C27U U47C G56C A57G C66G, the yeast fitness is reported as ≤ 0.5.
With A15G A21G G41A A65C the yeast fitness was ≤ 0.5.
With A15G A21U C24U G38A the yeast fitness was ≤ 0.5.
In the case of A15G A21U C34G C49G C61U A69G, the yeast fitness is reported as ≤ 0.5.
In the case of A15G A36U C62G, the yeast fitness is reported as ≤ 0.5.
For A15G A37G C55A, the yeast fitness was ≤ 0.5.
With A15G A37U A43C the yeast fitness was 0.518.
For A15G A40U A42C C49A C66A, the yeast fitness was ≤ 0.5.
For A15G A42G U53G, the yeast fitness was ≤ 0.5.
For A15G A45G G50C A69U, the yeast fitness was ≤ 0.5.
With A15G A57U U64G A65G the yeast fitness was ≤ 0.5.
For A15G C24G C29U, the yeast fitness was ≤ 0.5.
In the case of A15G C24G U32A G41A A69U, the yeast fitness is reported as ≤ 0.5.
In the case of A15G C27G A42C G58A G68C, the yeast fitness is reported as ≤ 0.5.
With A15G C27G A42G G48A the yeast fitness was ≤ 0.5.
In the case of A15G C29U A36U, the yeast fitness is reported as ≤ 0.5.
In the case of A15G C31A G41C G56A G58C, the yeast fitness is reported as ≤ 0.5.
In the case of A15G C33A C61U, the yeast fitness is reported as ≤ 0.5.
With A15G C33U A45U C62A the yeast fitness was ≤ 0.5.
With A15G C46A G48A A57U C60A the yeast fitness was ≤ 0.5.
In the case of A15G C55A A57U, the yeast fitness is reported as ≤ 0.5.
In the case of A15G C55A U64C, the yeast fitness is reported as ≤ 0.5.
In the case of A15G C60G C62U, the yeast fitness is reported as ≤ 0.5.
With A15G G17A U26G C30U G52A the yeast fitness was ≤ 0.5.
With A15G G17C C61U the yeast fitness was ≤ 0.5.
In the case of A15G G18A C55U G56A, the yeast fitness is reported as ≤ 0.5.
With A15G G23A C27G A43C the yeast fitness was ≤ 0.5.
In the case of A15G G23A C34G G67A, the yeast fitness is reported as ≤ 0.5.
A15G G23A G48A gave a yeast fitness of 0.675.
With A15G G23C G38C C49U the yeast fitness was ≤ 0.5.
In the case of A15G G50C C60U, the yeast fitness is reported as ≤ 0.5.
In the case of A15G G52A C55U, the yeast fitness is reported as ≤ 0.5.
For A15G G56A C60G, the yeast fitness was ≤ 0.5.
In the case of A15G U16A A20G A42G, the yeast fitness is reported as 0.577.
In the case of A15G U26G C30U C55U G67C, the yeast fitness is reported as ≤ 0.5.
For A15G U28A G39A G48A C61G C66G, the yeast fitness was ≤ 0.5.
For A15G U53A U64G G67C, the yeast fitness was ≤ 0.5.
In the case of A15U A20C C46G G50C C61G, the yeast fitness is reported as 0.604.
In the case of A15U A20C G48C U53A C61U, the yeast fitness is reported as ≤ 0.5.
In the case of A15U A20C U32G U54C A65C, the yeast fitness is reported as ≤ 0.5.
In the case of A15U A20G U35C G48U C55G, the yeast fitness is reported as ≤ 0.5.
For A15U A20U C27G C49G, the yeast fitness was 0.64.
For A15U A21C C24G C62G, the yeast fitness was ≤ 0.5.
With A15U A37G C66G the yeast fitness was ≤ 0.5.
With A15U A37U C66G G67C the yeast fitness was ≤ 0.5.
For A15U A43U C55A, the yeast fitness was ≤ 0.5.
With A15U A45G C49G the yeast fitness was ≤ 0.5.
With A15U A57C A65U the yeast fitness was 0.794.
Work on A15U A65U yielded a yeast fitness of 0.775.
